## Library screening results

Protein sequences, listed by entry. Tags and fused reporters are not part of them.
UniProt E9BF75, entry or part of it: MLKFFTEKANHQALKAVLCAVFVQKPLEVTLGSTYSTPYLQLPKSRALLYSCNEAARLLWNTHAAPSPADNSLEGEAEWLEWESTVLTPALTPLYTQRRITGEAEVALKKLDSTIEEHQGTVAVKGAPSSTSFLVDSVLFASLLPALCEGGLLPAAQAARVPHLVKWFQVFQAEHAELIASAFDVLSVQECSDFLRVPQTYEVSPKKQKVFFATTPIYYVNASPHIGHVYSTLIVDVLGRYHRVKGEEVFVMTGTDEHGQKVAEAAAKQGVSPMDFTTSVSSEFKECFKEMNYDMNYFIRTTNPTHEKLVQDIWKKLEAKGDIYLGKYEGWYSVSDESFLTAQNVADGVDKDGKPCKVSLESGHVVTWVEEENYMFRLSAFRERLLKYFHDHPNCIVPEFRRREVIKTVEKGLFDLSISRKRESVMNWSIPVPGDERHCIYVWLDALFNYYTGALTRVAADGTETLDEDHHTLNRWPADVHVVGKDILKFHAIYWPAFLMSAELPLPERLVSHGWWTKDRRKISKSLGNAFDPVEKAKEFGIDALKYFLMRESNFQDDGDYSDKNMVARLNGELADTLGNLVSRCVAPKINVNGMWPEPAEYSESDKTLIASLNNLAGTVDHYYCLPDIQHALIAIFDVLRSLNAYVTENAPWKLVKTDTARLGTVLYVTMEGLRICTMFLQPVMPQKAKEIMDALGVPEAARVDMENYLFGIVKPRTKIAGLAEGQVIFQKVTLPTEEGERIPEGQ

A: 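Assay on Mycobacterium tuberculosis, filed only as a heat shock assay from Cornell; the read-out is not stated. The concentration is filed as 10 mM, unlikely as a test dose, so the dose is not known. Direction is inferred from retests: higher values go with stronger inhibition. About 69,000 compounds were tested under these conditions; 1.4% (about 930) showed 50% or more at least once.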
B: 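Primary screen of methionyl-tRNA synthetase; the read-out is not stated. Target: Methionyl-tRNA synthetase (putative), Leishmania donovani (UniProt E9BF75). The test concentration is not given. Values are per cent inhibition. Size under these conditions: about 68,000 compounds, about 24 of them at 50% or above in at least one test.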
C: 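Whole-cell assay for inhibitors of Mycobacterium tuberculosis growth, labelled Cornell in the record; the read-out is not stated. The concentration is filed as 10 mM, unlikely as a test dose, so the dose is not known. The record gives no direction; compounds strong in two other growth screens of this library score well above the rest, so higher reads as stronger inhibition. Of about 53,000 compounds tested this way, about 900 (1.7%) reached 50% or more in at least one test.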

Results are percentages, as filed. The controls that fix the scale are not given in the record; negative values are as filed. Compounds were drawn at random from those tested, without regard to their results.

Result for CC(C)COC[C@@H]1CC[C@H]2[C@H](CCN2C(=O)c2ccncc2F)O1 was B: 15.23%.
Result for CCN(Cc1ccc2c(c1)OCO2)C(=O)NC(C)Cn1ccnc1 (centres undefined) was A: -13.42%; B: 13.86%.
Result for COCCc1noc(CN2CCCC2c2c(C)nn(C)c2C)n1 (centres undefined) was A: -6.391%; B: 11.89%.
Result for O=C(O)C(F)(F)F.O=C(O)C(F)(F)F.[H][C@@]12CN(Cc3cccc(F)c3)C[C@]1([H])CN(c1ncccn1)C2 was A: 11.8%; C: 6.684%.
Result for [H][C@@]12CCN(C(=O)c3ccsc3)C[C@@]1([H])O[C@H](c1nnc(C3CC3)o1)C2 was A: 26.95%; C: 17.71%.
Result for O=C(O)C(F)(F)F.[H][C@@]12CNC(=O)[C@@H](C)[C@]1([H])CN(Cc1ccsc1)C2 was A: -15.6%; C: 8.492%.
Result for COc1cc(N2CC[C@@H](OC)[C@@H]2Cc2cnn(C)c2)ncn1 was A: -11.33%; B: 0.3205%; C: -52.35%.
Result for CC(C)(C)c1cc(NC(=O)CNC2CCc3ncnn3C2)on1 (centres undefined) was A: 7.325%; B: 4.348%; C: -1.762%.
Result for O=C1c2cc(Br)cc(Br)c2OCC1(CN1CCCC1)CN1CCCC1 was A: 3.482%; B: 15.41%; C: -24.44%.
Result for O=C(Cc1ccsc1)NCC1OCCc2cn(CC3CC3)nc21 (centres undefined) was A: 3.045%; B: 22.55%; C: 21.12%.
Result for CC1c2ncc(CNC(=O)C3CC3)n2CCN1Cc1cccnc1.O=C(O)C(F)(F)F.O=C(O)C(F)(F)F (centres undefined) was A: -10.62%; C: 15.19%.
Result for Nc1cc(CCC2CN(Cc3ccc4c(c3)OCCO4)CCO2)ccn1 (centres undefined) was A: -6.182%; B: 8.235%.
Result for CN(CCO)C1CCN(c2ncc3c(n2)CCN3c2ccccc2)CC1 was A: -38.41%; B: 1.12%; C: -13.13%.
Result for CN1CCOC[C@H]1c1nc(-c2ccc(F)cc2F)c[nH]1 was A: -13.98%; B: 2.747%.
Result for CS(=O)(=O)NC(c1ccccc1)c1ccc2c(c1)CCCO2 (centres undefined) was A: 10.64%; B: 15.63%; C: 38.28%.
Result for CS(=O)(=O)c1cccc(Cl)c1C(=O)NCCN1C(=O)CCC1=O was A: 8.115%; B: 8.844%; C: 5.541%.
Result for CCc1[nH]c2c(CNC(=O)C3CNC(=O)C3)cc(C)cc2c1C (centres undefined) was A: 7.867%; B: 12.06%; C: -11.16%.
Result for CN(CC(O)C(F)(F)F)C(=O)Nc1cccc(C(F)F)c1 (centres undefined) was A: -21.23%; B: 0.838%; C: -5.964%.
Result for Cc1cccc(CN2CCC3(CCCN(C(=O)N(C)C)C3)C2=O)n1 (centres undefined) was B: 10.64%.
Result for Cc1ccc(C(=O)NCc2ccc(N(C)C)cc2)cn1 was A: 13.23%; B: 7.971%; C: -17.3%.
Result for c1csc(CN2Cc3nc(CN4CCCC4)oc3C2)c1 was B: 18.18%.
Result for C[S+]([O-])c1nncn1CCc1ccccc1 (centres undefined) was A: -15.81%; B: 8.333%; C: 6.183%.
Result for O=C(O)C(F)(F)F.O=C(O)C(F)(F)F.[H][C@@]12OCCN(Cc3ccccn3)[C@@]1([H])CC[C@H]2OCC(=O)N1CCCC1 was A: -27.94%; C: -3.511%.
Result for Cc1ccc2c(c1)OC(C)CN2C(=O)Cc1ccc(C)nc1 (centres undefined) was A: -21.34%; B: 12.56%; C: 24.3%.

Source: ChEMBL document CHEMBL3988442, “University of Dundee, Small-Polar-MMV Screening Library” (2021).